These are yes or no findings as the source states them, for the method shown. Sequences can lack the tags named with a protein.
Legend:
[1] = target: GFP-PLD (superfolder GFP fused to the prion-like domain of NFAT5, a.a. 999-1454) (human) (UniProt O94916); assay: condition: only no added salt (20 mM Na-HEPES, 5% dextran); 90 uM; in vitro phase separation (droplet) assay, fluorescence or brightfield microscopy; as a1 but no added salt: 20 mM Na-HEPES pH 7.4, 1 mM TCEP, 5% dextran; GFP-CTD 70 uM, GFP-PLD 90 uM; both purified
[2] = target: GFP-CTD (superfolder GFP fused to the C-terminal domain of NFAT5, a.a. 544-1531) (human) (UniProt O94916); assay: in vitro phase separation (droplet) assay, fluorescence or brightfield microscopy; as a1 but without dextran; GFP-CTD 70 uM; NaCl up to 1000 mOsm/L; both purified
[3] = target: GFP-CTD (superfolder GFP fused to the C-terminal domain of NFAT5, a.a. 544-1531) (human) (UniProt O94916); assay: condition: only no added salt (20 mM Na-HEPES, 5% dextran); 70 uM; in vitro phase separation (droplet) assay, fluorescence or brightfield microscopy; as a1 but no added salt: 20 mM Na-HEPES pH 7.4, 1 mM TCEP, 5% dextran; GFP-CTD 70 uM, GFP-PLD 90 uM; both purified

Binder	binding [1]	binding [2]	binding [3]
GFP-PLD (superfolder GFP fused to the prion-like domain of NFAT5, a.a. 999-1454) (domain or fragment, human, UniProt O94916 999-1454, looked up, NFAT5 (TonEBP), human, 1531 a.a. protein; prion-like domain (PLD), a.a; 999-1454; The methods for the bacterial construct say only 'NFAT5 PLD'; also called GFP-NFAT5 PLD; not shown: sfGFP, N-terminal, kept) QIQNSVFQTMVQMQHSGDNQPQVNLFSSTKSMMSVQNSGTQQQGNGLFQQGNEMMSLQSGNFLQQSSHSQAQLFHPQNPIADAQNLSQETQGSLFHSPNPIVHSQTSTTSSEQMQPPMFHSQSTIAVLQGSSVPQDQQSTNIFLSQSPMNNLQTNTVAQEAFFAAPNSISPLQSTSNSEQQAAFQQQAPISHIQTPMLSQEQAQPPQQGLFQPQVALGSLPPNPMPQSQQGTMFQSQHSIVAMQSNSPSQEQQQQQQQQQQQQQQQQQSILFSNQNTMATMASPKQPPPNMIFNPNQNPMANQEQQNQSIFHQQSNMAPMNQEQQPMQFQSQSTVSSLQNPGPTQSESSQTPLFHSSPQIQLVQGSPSSQEQQVTLFLSPASMSALQTSINQQDMQQSPLYSPQNNMPGIQGATSSPQPQATLFHNTAGGTMNQLQNSPGSSQQTSGMFLFGIQNN	no binding	–	–
GFP-CTD (superfolder GFP fused to the C-terminal domain of NFAT5, a.a. 544-1531) (domain or fragment, human, UniProt O94916 544-1531, looked up, NFAT5 (TonEBP), human, 1531 a.a. protein; C-terminal domain (CTD), a.a; 544-1531; The methods for the bacterial construct (pET-28a) say only 'NFAT5 CTD'; also called GFP-NFAT5 CTD; NFAT5 GFP-CTD; not shown: sfGFP, N-terminal, kept) DPAAAGALNVNVKKEISSPARPCSFEEAMKAMKTTGCNLDKVNIIPNALMTPLIPSSMIKSEDVTPMEVTAEKRSSTIFKTTKSVGSTQQTLENISNIAGNGSFSSPSSSHLPSENEKQQQIQPKAYNPETLTTIQTQDISQPGTFPAVSASSQLPNSDALLQQATQFQTRETQSREILQSDGTVVNLSQLTEASQQQQQSPLQEQAQTLQQQISSNIFPSPNSVSQLQNTIQQLQAGSFTGSTASGSSGSVDLVQQVLEAQQQLSSVLFSAPDGNENVQEQLSADIFQQVSQIQSGVSPGMFSSTEPTVHTRPDNLLPGRAESVHPQSENTLSNQQQQQQQQQQVMESSAAMVMEMQQSICQAAAQIQSELFPSTASANGNLQQSPVYQQTSHMMSALSTNEDMQMQCELFSSPPAVSGNETSTTTTQQVATPGTTMFQTSSSGDGEETGTQAKQIQNSVFQTMVQMQHSGDNQPQVNLFSSTKSMMSVQNSGTQQQGNGLFQQGNEMMSLQSGNFLQQSSHSQAQLFHPQNPIADAQNLSQETQGSLFHSPNPIVHSQTSTTSSEQMQPPMFHSQSTIAVLQGSSVPQDQQSTNIFLSQSPMNNLQTNTVAQEAFFAAPNSISPLQSTSNSEQQAAFQQQAPISHIQTPMLSQEQAQPPQQGLFQPQVALGSLPPNPMPQSQQGTMFQSQHSIVAMQSNSPSQEQQQQQQQQQQQQQQQQQSILFSNQNTMATMASPKQPPPNMIFNPNQNPMANQEQQNQSIFHQQSNMAPMNQEQQPMQFQSQSTVSSLQNPGPTQSESSQTPLFHSSPQIQLVQGSPSSQEQQVTLFLSPASMSALQTSINQQDMQQSPLYSPQNNMPGIQGATSSPQPQATLFHNTAGGTMNQLQNSPGSSQQTSGMFLFGIQNNCSQLLTSGPATLPDQLMAISQPGQPQNEGQPPVTTLLSQQMPENSPLASSINTNQNIEKIDLLVSLQNQGNNLTGSF	–	no binding (condition: without dextran; 70 uM)	no binding

From doi:10.1101/2023.09.23.559074, “Direct ionic stress sensing and mitigation by the transcription factor NFAT5” (bioRxiv, 2023)
